According to doi:10.1101/2020.11.27.400903:
No constants are given. Whether binding was seen depends on the method and setting. In cells and extracts the contact can be indirect. Some results given as binding are weak or reduced against the parent protein; the word gives no strength. Where a sequence is shown, tags or fusion partners need not be part of it.

Biological target: T1, Cdc55 (regulatory subunit of the PP2A-Cdc55 phosphatase), Pk-tagged (S. cerevisiae) (UniProt Q00362)
T1 sequence: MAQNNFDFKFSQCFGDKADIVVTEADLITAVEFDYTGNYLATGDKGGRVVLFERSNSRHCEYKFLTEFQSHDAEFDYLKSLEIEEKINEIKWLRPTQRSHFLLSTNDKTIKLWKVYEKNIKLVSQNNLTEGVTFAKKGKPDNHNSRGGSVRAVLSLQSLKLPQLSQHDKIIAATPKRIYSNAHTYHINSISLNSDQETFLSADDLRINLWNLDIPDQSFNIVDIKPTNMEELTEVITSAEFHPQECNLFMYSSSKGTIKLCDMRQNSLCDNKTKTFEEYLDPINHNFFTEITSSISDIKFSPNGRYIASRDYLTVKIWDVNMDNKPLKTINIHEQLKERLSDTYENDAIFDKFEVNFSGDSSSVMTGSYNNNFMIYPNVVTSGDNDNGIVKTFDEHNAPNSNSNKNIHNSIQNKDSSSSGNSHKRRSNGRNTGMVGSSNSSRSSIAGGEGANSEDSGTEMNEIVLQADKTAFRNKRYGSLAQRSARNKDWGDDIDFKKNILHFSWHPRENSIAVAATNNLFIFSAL
Assay: co-IP

binding: binds
B1: Chs2 (chitin synthase II) (enzyme, UniProt P14180 1-963)
chain: MTRNPFMVEPSNGSPNRRGASNLSKFYANANSNSRWANPSEESLEDSYDQSNVFQGLPASPSRAALRYSPDRRHRTQFYRDSAHNSPVAPNRYAANLQESPKRAGEAVIHLSEGSNLYPRDNADLPVDPYHLSPQQQPSNNLFGSGRLYSQSSKYTMSTTSTTAPSLAEADDEKEKYLTSTTSYDDQSTIFSADTFNETKFELNHPTRQQYVRRANSESKRRMVSDLPPPSKKKALLKLDNPIPKGLLDTLPRRNSPEFTEMRYTACTVEPDDFLREGYTLRFAEMNRECQIAICITMYNEDKYSLARTIHSIMKNVAHLCKREKSHVWGPNGWKKVSVILISDGRAKVNQGSLDYLAALGVYQEDMAKASVNGDPVKAHIFELTTQVSINADLDYVSKDIVPVQLVFCLKEENKKKINSHRWLFNAFCPVLQPTVVTLVDVGTRLNNTAIYRLWKVFDMDSNVAGAAGQIKTMKGKWGLKLFNPLVASQNFEYKISNILDKPLESVFGYISVLPGALSAYRYRALKNHEDGTGPLRSYFLGETQEGRDHDVFTANMYLAEDRILCWELVAKRDAKWVLKYVKEATGETDVPEDVSEFISQRRRWLNGAMFAAIYAQLHFYQIWKTKHSVVRKFFLHVEFLYQFIQMLFSWFSIANFVLTFYYLAGSMNLVIKHGEALFIFFKYLIFCDLASLFIISMGNRPQGAKHLFITSMVILSICATYSLICGFVFAFKSLASGTESHKIFVDIVISLLSTYGLYFFSSLMYLDPWHMFTSSIQYFLTLPAFTCTLQIFAFCNTHDVSWGTKGSTQESKQLSKAIVVQGPDGKQIVETDWPQEVDKKFLEIKSRLKEPEFEESSGNEKQSKNDYYRDIRTRIVMIWMLSNLILIMSIIQVFTPQDTDNGYLIFILWSVAALAAFRVVGSMAFLFMKYLRIIVSYRNKVEGSGSWEVSKLDLPNVFHKKG
